Reference: patent publication US20040048866A1 (priority 2002, published 2004)

Biological target: T1, α1 and β1 subunits of guanylate cyclase (sGC), expressed in Sf9 cells (Homo sapiens, UniProt Q02108+Q02153)
T1 construct: made in house; host or cells: Sf9 insect cells (baculovirus co-infection); high-speed supernatant used unpurified
T1 sequence (Q02108 1-690): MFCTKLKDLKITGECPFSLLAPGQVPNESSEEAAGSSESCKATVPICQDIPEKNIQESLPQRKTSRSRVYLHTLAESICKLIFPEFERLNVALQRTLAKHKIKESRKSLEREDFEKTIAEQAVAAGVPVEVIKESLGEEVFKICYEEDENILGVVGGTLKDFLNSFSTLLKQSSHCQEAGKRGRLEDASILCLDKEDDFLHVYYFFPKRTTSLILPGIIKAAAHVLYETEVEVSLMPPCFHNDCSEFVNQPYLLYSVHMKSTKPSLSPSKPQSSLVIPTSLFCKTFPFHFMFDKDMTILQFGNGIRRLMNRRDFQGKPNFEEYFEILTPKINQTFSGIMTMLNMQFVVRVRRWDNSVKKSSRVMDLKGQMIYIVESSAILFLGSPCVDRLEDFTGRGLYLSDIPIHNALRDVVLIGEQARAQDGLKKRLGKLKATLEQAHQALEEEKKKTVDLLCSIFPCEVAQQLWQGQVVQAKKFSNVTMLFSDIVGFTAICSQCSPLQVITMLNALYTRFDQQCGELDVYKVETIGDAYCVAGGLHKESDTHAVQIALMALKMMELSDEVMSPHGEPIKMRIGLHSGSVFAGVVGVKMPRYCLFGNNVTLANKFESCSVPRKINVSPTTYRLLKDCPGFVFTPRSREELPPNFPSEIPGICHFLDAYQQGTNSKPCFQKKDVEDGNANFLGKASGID
T1 sequence (Q02153 1-619): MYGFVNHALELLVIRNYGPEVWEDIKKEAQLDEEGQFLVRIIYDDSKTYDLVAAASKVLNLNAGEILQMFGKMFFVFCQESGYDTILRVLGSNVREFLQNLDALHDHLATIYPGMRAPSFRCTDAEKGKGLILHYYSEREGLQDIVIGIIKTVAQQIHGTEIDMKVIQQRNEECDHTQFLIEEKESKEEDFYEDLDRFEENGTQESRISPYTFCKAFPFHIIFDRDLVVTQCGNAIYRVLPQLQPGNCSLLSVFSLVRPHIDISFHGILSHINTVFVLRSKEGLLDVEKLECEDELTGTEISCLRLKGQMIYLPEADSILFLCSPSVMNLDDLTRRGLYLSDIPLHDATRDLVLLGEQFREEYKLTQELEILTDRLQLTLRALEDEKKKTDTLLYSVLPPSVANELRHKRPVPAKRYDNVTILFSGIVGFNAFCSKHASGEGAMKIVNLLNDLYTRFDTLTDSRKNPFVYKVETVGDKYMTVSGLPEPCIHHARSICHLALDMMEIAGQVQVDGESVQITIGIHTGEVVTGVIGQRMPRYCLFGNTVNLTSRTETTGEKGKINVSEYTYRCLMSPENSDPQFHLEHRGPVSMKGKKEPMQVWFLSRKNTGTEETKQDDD
Assay: Guanylate Cyclase Assay (formation of cyclic GMP from GTP)
Format: biochemical
Method: Sf9 cells were cultured in Sf-90011 medium supplemented with 10% (v/v) fetal calf serum at 28° C. to give a count of 6×10^5 cells/ml. The cells were then infected with a mixture of the virus stocks for the α1 and β1 subunits of guanylate cyclase at a multiplicity of infection of 0.1 pfu/cell. The cells were harvested 72 hours after infection and were pelleted by centrifugation. The resulting cell pellets were homogenized with Polytron homogenizer in 3 volumes of 20 mM Tris-HCl (pH 7.6) containing 1 mM EDTA, 5 mM dithiothreitol, 90 mM NaCl, 10% glycerol, and protease inhibitors mix (Roche Molecular Biochemicals). The homogenate was centrifuged at 50,000×g for 60 minutes and the supernatant was aliquotted and stored at −80° C.
Compounds of the present invention were dissolved in DMSO to make 100 mM and saved as stocks at −20° C. When compounds were tested, 10-fold concentrated solutions with 10% DMSO were prepared. 10 μl of 10-fold concentrated compound solutions were added to the reaction mixture total of 100 μl.
Guanylate cyclase activity was measured by the formation of cyclic GMP from GTP in a total volume of 100 μl. Guanylate cyclase-expressed Sf9 cell high-speed supernatant (Sf9 high-speed sup) was used as an enzyme source for the assay. […] The solution was centrifuged at 3000 rpm for 15 minutes at room temperature and cyclic GMP in 20 μl of the resulting supernatant was measured according to the protocol of Amersham cyclic GMP enzymeimmunoassay system (Amersham, RPN 226).
Compounds of the present invention were tested at 100 μM with and without 1 μM of sodium nitroprusside (SNP). […] Mean basal efficacy, in Table 1, was expressed as a percentage of 100 μM YC-1 (without SNP).
The mean activation, in Table 1, was calculated based on the formula: (activity of compound of the present invention at 100 μM with 1 μM SNP)−(activity of compound of on at 100 μM)/(activity of SNP at 1 μM)−(basal activity of sGC).

Mean activation at 100 μM ((activity at 100 μM with 1 μM SNP − activity at 100 μM)/(activity of SNP at 1 μM − basal activity of sGC)): 2.5
Mean efficacy at 100 μM with 1 μM of SNP, [% of YC-1] (compound at 100 μM with 1 μM sodium nitroprusside (SNP), normalized to 100 μM YC-1 (without SNP) as 100%): 18 % of YC-1
Emax at 100 µM (compound at 100 μM without SNP, normalized to activity of 100 μM YC-1 (without SNP) as 100%, read-out: Mean basal efficacy at 100 μM, [% of YC-1]): 3%
Compound: O=C(NCCCCO)c1ccc(Oc2nn(Cc3ccccc3)c3ccccc23)o1 [Example 6, 5-[(1-benzyl-1H-indazol-3-yl)oxy]-N-(4-hydroxybutyl)-2-furamide]
